The record followed here is article PMC4158420, “Crenactin from Pyrobaculum calidifontis is closely related to actin in structure and forms steep helical filaments” (Febs Letters, 2014).

Amino acid sequences for entries named in this document (tags omitted).
UniProt A3MWN5: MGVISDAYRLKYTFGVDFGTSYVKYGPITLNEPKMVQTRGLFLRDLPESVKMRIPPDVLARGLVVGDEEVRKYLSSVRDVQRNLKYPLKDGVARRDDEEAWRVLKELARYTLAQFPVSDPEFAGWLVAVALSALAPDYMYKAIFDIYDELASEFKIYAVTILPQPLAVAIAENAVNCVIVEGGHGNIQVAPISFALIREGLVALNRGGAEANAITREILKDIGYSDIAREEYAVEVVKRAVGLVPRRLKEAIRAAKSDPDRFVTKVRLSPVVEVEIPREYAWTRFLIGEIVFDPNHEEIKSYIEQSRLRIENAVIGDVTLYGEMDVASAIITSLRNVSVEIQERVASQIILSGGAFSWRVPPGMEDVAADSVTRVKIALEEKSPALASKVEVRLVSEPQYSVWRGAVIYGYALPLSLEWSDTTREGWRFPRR

These are yes or no findings as the source states them, for the method shown.

The target of this assay is Pyrobaculum calidifontis crenactin (Pyrobaculum calidifontis) (UniProt A3MWN5). Kind of assay: condition: only grids not treated with poly-L-lysine and no high salt; negative stain electron microscopy; purified crenactin with ATP on carbon-coated grids not treated with poly-L-lysine, no high salt; both purified.

Regarding “Pyrobaculum calidifontis crenactin (from UniProt A3MWN5 1-432)”, the binding result was “no binding”.
